# Library screen at single concentrations

Sequences of proteins named here, by UniProt entry; tags and fusion partners are left off. Residues count along the entry.
UniProt Q4DA54, 1-478: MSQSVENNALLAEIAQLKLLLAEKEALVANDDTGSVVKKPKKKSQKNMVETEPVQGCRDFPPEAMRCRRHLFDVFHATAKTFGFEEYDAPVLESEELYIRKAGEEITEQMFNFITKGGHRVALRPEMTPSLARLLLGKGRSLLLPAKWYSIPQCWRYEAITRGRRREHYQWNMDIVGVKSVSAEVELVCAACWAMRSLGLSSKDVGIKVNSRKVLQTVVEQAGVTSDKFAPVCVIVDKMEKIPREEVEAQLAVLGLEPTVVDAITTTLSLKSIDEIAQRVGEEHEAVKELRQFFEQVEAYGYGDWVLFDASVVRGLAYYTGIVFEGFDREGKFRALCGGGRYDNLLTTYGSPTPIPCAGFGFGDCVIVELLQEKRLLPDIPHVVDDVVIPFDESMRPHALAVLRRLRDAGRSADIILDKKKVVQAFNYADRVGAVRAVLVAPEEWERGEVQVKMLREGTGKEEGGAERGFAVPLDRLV

Measurements from “University of Dundee, Small-Polar-MMV Screening Library” (2021), ChEMBL document CHEMBL3988442.

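Histidine-tRNA ligase, Trypanosoma cruzi CL Brener (UniProt Q4DA54). Enzyme assay of histidyl-tRNA synthetase; the read-out is not stated. Concentration: 30 µM. Direction is inferred from retests: higher values go with stronger inhibition. Of about 69,000 compounds tested this way, about 31 (0.045%) reached 50% or more in at least one test.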

Each number is a percent effect as filed. The controls that fix the scale are not given in the record; negative values are as filed. Compounds were drawn at random from those tested, without regard to their results.

{"structure": "COc1ccc2nnc(CCCC(=O)NCc3ccccc3F)n2n1", "effect": -3.96}
{"structure": "COc1ccc(OCc2cc(C(=O)N3CCN[C@H](C)C3)n[nH]2)c(Cl)c1", "effect": 5}
{"structure": "CC(C)(C)CC(NC(=O)N1CCS(=O)(=O)CC1)C(F)(F)F", "stereo": "stereo not drawn", "effect": 4.762}
{"structure": "Cn1cc(CN2C[C@H]3CCC[C@@]3(COCC3CC3)C2)cn1", "effect": 5.525}
{"structure": "CCCC(C)NC1CCN(c2ccc(-n3ccnc3C)cc2)CC1", "stereo": "stereo not drawn", "effect": 3.352}
{"structure": "CN(Cc1nc(Cc2cccc(C(F)(F)F)c2)no1)C(C1CC1)C1CC1", "effect": -1.493}
{"structure": "Cc1cc(Br)ccc1C(=O)N(C)CCNS(C)(=O)=O", "effect": -1.149}
{"structure": "O=S(=O)(C1CC1)N1CCO[C@@H]2CC(COCc3cccnc3)C[C@H]21", "stereo": "stereo partly drawn", "effect": 8.889}
{"structure": "Cc1c(Cn2c(=O)cnc3ccccc32)cnn1C", "effect": 1.212}
{"structure": "O=C1COC2(CCN(Cc3ccncc3)CC2)CN1c1ccccc1", "effect": 9.045}
{"structure": "Cn1cc(CN2C[C@@H](N3CCCC3=O)[C@H]3OCCC[C@H]32)cn1", "effect": 2.151}
{"structure": "Cc1cccc(CN2CCC3(CC2)CN(c2cnn(C)c2)C(=O)CO3)n1", "effect": 4.878}
{"structure": "Cc1nc(CO[C@@H]2CN(Cc3ccco3)[C@@H]3COC[C@@H]32)cs1", "effect": 1.754}
{"structure": "Cc1cc(NCC2CC(=O)Nc3ccccc32)nc(C)n1", "stereo": "stereo not drawn", "effect": 4.972}
{"structure": "COc1nn(C)c2c1CCCN(C(=O)c1ccc(C)c(F)c1)C2", "effect": 1.84}
{"structure": "CN(Cc1ccco1)C[C@H]1OC[C@@H]2CCN(Cc3ccncc3)C[C@@H]21", "effect": 8.911}
{"structure": "CCc1ccsc1C(=O)N(C)CCc1ccncc1", "effect": -2.128}
{"structure": "Cc1nc(N2CCC(C(O)c3nccn3C)CC2)c2c(C)noc2n1", "stereo": "stereo not drawn", "effect": 5.202}
{"structure": "Cc1cc(C2CCC2)nc(N(C)CCc2ccccn2)n1", "effect": 3.093}
{"structure": "CC(=O)N[C@@H]1CN(C(=O)c2csc(C(C)C)n2)C[C@H]1C(C)C", "effect": 3.012}
{"structure": "CC(C)(C)c1cc(NC(=O)CN2CCc3cncnc3C2)on1", "effect": 9.798}
{"structure": "CCc1noc(C)c1C(=O)N1CCCC1Cn1cccn1", "stereo": "stereo not drawn", "effect": 3.468}
{"structure": "CCC(CO)N(Cc1cccnc1)Cc1ccc(-c2ccn[nH]2)s1", "stereo": "stereo not drawn", "effect": 2.618}
{"structure": "CC(C)CN1C[C@H]2C[C@H](C(=O)Nc3cccnc3)[C@@H](C1)O2", "effect": 2.762}
{"structure": "Cc1cccc(CN2C[C@@H]3CN(C(=O)c4ccnnc4)C[C@@H]3C2=O)c1", "effect": 8.824}
{"structure": "CN(C)C(=O)c1cn[nH]c1C1CCCN1Cc1c[nH]cn1", "stereo": "stereo not drawn", "effect": 0.8571}
{"structure": "Cn1ccnc1CN1CCC2(CC1)Cc1ccccc1CNC2=O", "effect": 4.444}
{"structure": "Cc1cc(C)c(CNc2cnc3ccccc3n2)c(=O)[nH]1", "effect": 6.349}
{"structure": "O=C1CO[C@H]2CN(Cc3cccc4[nH]ccc34)C[C@@H]2N1C1CCOCC1", "effect": 4.563}
{"structure": "CN1CCN(Cc2ccc(-c3ccc4[nH]ccc4c3)nc2)CC1", "effect": 2.424}
{"structure": "O=C(N[C@]12CC1CN(C(=O)c1ccco1)C2)c1cccc(F)c1", "stereo": "stereo partly drawn", "effect": 6.796}
{"structure": "Cn1cc(-c2ncnc3c2CCN(C(=O)N2CCOCC2)CC3)cn1", "effect": -0.8475}
{"structure": "O=C(O)c1cc(S(=O)(=O)N2CCOc3ccccc32)cc(Cl)c1Cl", "effect": -3.812}
{"structure": "Cc1nc(CCC(=O)N2Cc3cnc(-c4ccccc4)nc3C2)n[nH]1", "effect": 2.646}
{"structure": "CCN1CCN(c2ccc(C(=O)NCCOC)cc2F)CC1", "effect": -16.47}
{"structure": "Cc1ccnc(C(NC(=O)c2ncoc2C)C2CC2)n1", "stereo": "stereo not drawn", "effect": 16.67}
{"structure": "COc1ccccc1OCC(=O)Nc1ncccc1Cl", "effect": -0.813}
{"structure": "Cc1nnc2n1CCN(CC(=O)NC(C)c1cc3ccccc3o1)C2", "stereo": "stereo not drawn", "effect": 6.329}
{"structure": "CCc1nccn1C1CCCN(C(=O)c2ccn(-c3ccccc3)n2)C1", "stereo": "stereo not drawn", "effect": 5}

The first 4 entries again:

Result for COc1ccc2nnc(CCCC(=O)NCc3ccccc3F)n2n1 was -3.96%.
Result for COc1ccc(OCc2cc(C(=O)N3CCN[C@H](C)C3)n[nH]2)c(Cl)c1 was 5%.
Result for CC(C)(C)CC(NC(=O)N1CCS(=O)(=O)CC1)C(F)(F)F (stereo not drawn) was 4.762%.
Result for Cn1cc(CN2C[C@H]3CCC[C@@]3(COCC3CC3)C2)cn1 was 5.525%.